This passage reports binding results from article PMC5364462.

The chains behind the UniProt entries cited, without tags or fusion partners. Where a name states a change or a piece, a line headed by the entry shows the natural chain unless it says otherwise. Residues count along the entry.
UniProt P29317, residues 24-903: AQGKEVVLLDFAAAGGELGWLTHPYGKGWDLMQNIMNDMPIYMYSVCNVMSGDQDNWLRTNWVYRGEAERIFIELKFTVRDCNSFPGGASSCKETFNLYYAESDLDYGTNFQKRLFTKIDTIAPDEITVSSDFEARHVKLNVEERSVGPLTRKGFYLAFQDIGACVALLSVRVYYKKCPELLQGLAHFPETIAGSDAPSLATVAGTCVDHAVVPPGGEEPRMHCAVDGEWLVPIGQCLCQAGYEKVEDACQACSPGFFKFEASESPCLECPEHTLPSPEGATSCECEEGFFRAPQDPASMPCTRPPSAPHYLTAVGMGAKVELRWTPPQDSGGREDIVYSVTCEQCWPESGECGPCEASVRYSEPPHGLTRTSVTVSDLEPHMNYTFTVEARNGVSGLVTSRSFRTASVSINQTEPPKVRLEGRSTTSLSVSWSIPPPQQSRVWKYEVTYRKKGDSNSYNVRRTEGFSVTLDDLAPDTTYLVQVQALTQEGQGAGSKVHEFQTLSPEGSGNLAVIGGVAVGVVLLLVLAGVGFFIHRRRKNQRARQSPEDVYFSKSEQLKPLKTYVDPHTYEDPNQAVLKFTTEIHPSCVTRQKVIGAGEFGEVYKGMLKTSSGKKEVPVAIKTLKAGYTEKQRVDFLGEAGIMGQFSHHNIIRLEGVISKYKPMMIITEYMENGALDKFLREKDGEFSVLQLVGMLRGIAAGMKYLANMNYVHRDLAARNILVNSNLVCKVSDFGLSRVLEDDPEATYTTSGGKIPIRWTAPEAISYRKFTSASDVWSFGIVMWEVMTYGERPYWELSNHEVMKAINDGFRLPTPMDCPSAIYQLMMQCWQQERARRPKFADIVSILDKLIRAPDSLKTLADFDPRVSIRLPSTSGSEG

The assay has as its target EphA2ΔS-GFP (human) (UniProt P29317). Put plainly: fluorescence correlation spectroscopy (FCS); live 728 cells stably expressing the GFP-tagged construct, incubated in 1 μg/mL EA1-Fc/Opti-MEM for 20 min before FCS; 37 °C; median of single-cell molecular brightness.

No constants are given. Whether binding was seen depends on the method and setting. Some results given as binding are weak or reduced against the parent protein; the word gives no strength.

For “EphA2ΔS-GFP (from UniProt P29317 24-903) (receptor)”, the binding entry is on record as “binds”.
